We go through 107 sequences from PubChem BioAssay AID1508600 (Functional Genomics Laboratory (NCATS/FGL), 2020).

The campaign covered roughly 53,000 sequences. About 3,700 (7%) were called active.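 Rule for the calls: active = gene knockdowns whose robust z-score for IL-1 alpha signal is at least 2 or at most -2, so actives lie on both sides; inactive = the rest.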 Some of the results follow.

This experiment in a line: Components of the Cytosolic LPS Sensing Pathway: Gene Identification via Genome-wide siRNA Screen.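 Note: robust z of the log signal after scaling to non-targeting control siRNA wells of the plate.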 As to conditions: RAW264.7 macrophages, IL-1a HTRF, actives lie on both sides, screened at 100 nM (by protocol), cells primed 5 h with Pam3CSK4 first. In a few lines: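 RAW264.7 mouse macrophages reverse-transfected with single siRNAs (100 nM final) for 48h, primed with Pam3CSK4 for 5 hours, then transfected with LipidA for 24 hour. Supernatant IL-1a read by HTRF; values normalized to negative-control median, log-transformed robust z-scores.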
For orientation: Time-resolved FRET reads energy transfer from a long-lived donor to a nearby acceptor.
Regarding GGGUCAGAUGGUACCAAGATT against Adamts18, the z-score was inactive: 0.0174.

Regarding GGCUCAUUUAACUCCAUGCTT against Gatad2a, the z-score was inactive: -0.892.

Take “GGAAAGAAGCAACCACUUCTT against 4833439L19Rik”: the z-score was inactive: 0.403.

Regarding GGUCAUGCGGAGCAAAGAATT against Sirt5, the z-score is inactive: -1.22.

Turning to GGUAACAGUCCUGAAAUACTT against Ugt2a3, the z-score was inactive: -0.557.

Turning to GGAUGAUGCCCGAAAGAACTT against Zfp536, the z-score was active: -4.55.

Regarding GGCUGAAUGUGAGAAUAGCTT against Map3k14, the z-score was inactive: -0.382.

As to GGCAUUGAUAAAGAUGGCATT against Grip1, the z-score is inactive: -1.04.

On to GCUGGAAGAUAGUGCUUUUTT against Itpr1, for which the z-score was active: 5.23.

For the sequence GGACUGACAGAGUCACUUGTT against Olfr733, the z-score is inactive: -1.48.

As to GAUCACAGUCACGAUAUAATT against Klk8, the z-score was inactive: 0.896.

Turning to GCUUGUGCGUCCUUUCUGUTT against Nmu, the z-score is inactive: 0.642.

As for CCUUAUAAAAGCUACGAGGTT against Hsd3b7, the z-score is inactive: 0.175.

In the case of GCCAGUCACCAAUUCCAAATT against Eif2a, the z-score was inactive: 1.1.

As to GCCCAAACGAAAAAUGGCCTT against Abl1, the z-score is active: 2.95.

For GGAUGUGAAUCUGCGCAAUTT against Dpep3, the z-score was inactive: 1.

In the case of GGUUUGUGCCUUUAUAGUGTT against Ppm1h, the z-score was inactive: 0.0286.

As to GGACAUAAGUGACAGACAUTT against Chrnb2, the z-score is inactive: -0.186.

For the sequence GGAUUCAAACCUAAGUUUGTT against Map4, the z-score was inactive: 0.958.

In the case of CCUGCUCAUAAUUCUGUGUTT against Olfr855, the z-score is inactive: 0.309.

Consider GGGAUAGGAAAAAGUAACATT against Tmem71, for which the z-score was inactive: -1.11.

With CCCAUAUCCUGUAAAAUACTT against Usp7, the z-score is inactive: -0.477.

On to CGGUAACUGAGUCAGUUGUTT against Zbtb11os1, for which the z-score is inactive: -0.0331.

In the case of GGACUUAACUAGUUGACAATT against Pclaf, the z-score was inactive: -1.06.

On to CCCAAGCCUUUAAACGGAGTT against Cbln3, for which the z-score was inactive: -0.587.

Turning to GCAAAACCGGCGUAUGAGATT against Snap47, the z-score was inactive: 0.472.

In the case of GGUAUACUUCAAAAGAAGGTT against H2-Q1, the z-score was inactive: 0.14.

On to GGAUAUCAAGAAGAGCCUGTT against Ptprr, for which the z-score is inactive: -1.7.

For the sequence GCCCAGUGUGCAAUUAAACTT against Uvrag, the z-score is inactive: -1.18.

Regarding GGCCAAGAUCCAAGACAAGTT against Uba52, the z-score was inactive: -1.04.

For CCAAACAUCAAGGAGUUUATT against Ero1b, the z-score is inactive: 0.723.

In the case of GUGUGUGUGCAGUCCUCAUTT against Olfr1269, the z-score was inactive: -0.438.

As for GGAAACGUAUGAACAAUAATT against Sema4f, the z-score is inactive: 0.896.

Take CCAAAGAUCUCAAAUAAAGTT against Tlk2: the z-score was inactive: -0.468.

On to GGACUAUGCAGUUUUAUUGTT against Chrac1, for which the z-score was inactive: -0.201.

For the sequence GCAAAUUCUCGGUGUCAAATT against Ezh2, the z-score was inactive: -1.04.

For GGGUCAACUACUCACACUGTT against Crhr2, the z-score is inactive: 0.78.

With GCCCUUACAGUUACCCUUGTT against Aldoc, the z-score was inactive: 1.78.

As for GGCGAAUUAAUUAACCGCCTT against Abcb10, the z-score is inactive: 0.798.

CGGCUGAACAUGGAACAACTT against Gpc3: the z-score is inactive: -0.0864.

For GGUCAUGGAAGAAGCAAAGTT against Sltm, the z-score is active: 2.08.

For CUAGCAGGGUCAGAAUGUUTT against Olfr331, the z-score is inactive: -1.2.

For GGAAAAAUAUGAGUCUUCCTT against Serpinb2, the z-score was inactive: 0.621.

For the sequence GGGACAAUACUUUCUUCUATT against Meig1, the z-score was inactive: 0.0935.

For the sequence GCCAUUUCGUUCUCUGGGUTT against Olfr161, the z-score was inactive: -0.557.

On to GGUCUCACCAUCUUAACCCTT against Catsper1, for which the z-score is inactive: -1.15.

Take GGAUUUGGGUUAGAUCUUUTT against Cpeb3: the z-score is inactive: 0.862.

Take GGUAGAUGGCAUCUACUAUTT against Josd2: the z-score is inactive: 0.663.

With GGAGAACAAAGUCCACACGTT against Lratd1, the z-score was inactive: 0.894.

With GGAAAGUCUGUUUUUCACUTT against Adh5, the z-score is inactive: -0.45.

In the case of CCACCCGUUUUGUUGUACCTT against Dcaf17, the z-score was inactive: 0.258.

For “GCUUCAACAUGCUUUGUUUTT against A430010J10Rik”, the z-score is inactive: -0.555.

On to GGCUGAGGAGAUAACCAUATT against Nemp2, for which the z-score was inactive: -0.701.

For GCCACUCUGAUUCUCUAGATT against Cdc25a, the z-score is inactive: 1.26.

For the sequence GCUUAAAGCUGCCUAAAAATT against Mtres1, the z-score is inactive: 0.409.

On to GGUUUUCAAUGGAGAAGGATT against Ikzf2, for which the z-score was inactive: 0.717.

Take CCUAGCUACAGAACUGUGCTT against Snapin: the z-score is inactive: -1.1.

For GGAAGUAUCAAUACUUUCCTT against Pkdrej, the z-score was inactive: -0.327.

Regarding GGGCAAGGGCAAGAAAUCUTT against H1f6, the z-score was inactive: -1.49.

As to GGUAACCGUGUUCUUAUGGTT against Fgf13, the z-score was inactive: -0.0872.

On to GGCUUUUGACCUCUUCGAUTT against Vav1, for which the z-score is inactive: -0.71.

Turning to GGCAAAUCUCAUGCAUAAUTT against Ahsg, the z-score was inactive: 0.446.

In the case of GGAAUUGCACUUUUCCAAUTT against Phlda1, the z-score was inactive: 0.481.

For GCUGCUUUCGUGUAGAAUGTT against Snapc1, the z-score was inactive: 0.803.

On to GGCAAGAGGUAUCAAGGUGTT against Ctsd, for which the z-score is inactive: -1.05.

Take GGACAUUGCUAACUGCCUUTT against Snx16: the z-score is active: 2.37.

With GGAGGUGCUAACCUAACAGTT against Ggh, the z-score was inactive: -1.1.

As for GGUACAGAAUAUGUCACAGTT against Olfm3, the z-score is inactive: 0.627.

Regarding GGAGGAAUUCCAAUGUUACTT against Meltf, the z-score was inactive: -0.271.

Regarding CCUGAAAACCAUGCAAUACTT against Tas2r125, the z-score was active: -2.37.

For the sequence CCCUGAAUUGCAACCUAUUTT against Olfr867, the z-score was inactive: 0.371.

For the sequence CUCUUCAACGAGUGUAAAATT against Klra7, the z-score is inactive: 0.562.

As for GGAGGAAAAGGCAAUCGUUTT against Mtg2, the z-score is inactive: 0.359.

GACCAUUAACUUGAUUUUGTT against Lsm8: the z-score is inactive: -0.587.

As for GGAACUUAUACAAAAAAGCTT against Spata6, the z-score is inactive: -0.262.

Take GCGACCAGCAGGUCAAAAUTT against Hoxd12: the z-score is active: 3.09.

For the sequence GGAGCUCAAGAACAGGAUGTT against Clec3b, the z-score is inactive: -0.0394.

Consider GGAGGCUUUUGUAAAAUCUTT against Me3, for which the z-score is inactive: 1.16.

On to GGAUCCUGACUCUCCUCUUTT against Fhl3, for which the z-score is inactive: -0.511.

As to GAUGCCUUUUUUGUAGGCATT against Olfr539, the z-score is inactive: -0.13.

In the case of CGAGGUGAAGGAUUACACCTT against Crispld2, the z-score was inactive: 0.263.

Turning to GCAGCAUCGCGUAGAAACATT against Gar1, the z-score is inactive: -0.566.

GGACAUUUUCUUUUCACGUTT against Nhlrc3: the z-score was inactive: -0.222.

GCCGGAAUCCUGUGGAAUCTT against Kat14: the z-score is active: 6.46.

As to GGUGUUUGAUGUGGUGAACTT against Ppwd1, the z-score is inactive: -0.964.

Turning to GGCCUGUGAUCAGAUGUACTT against Uqcc2, the z-score is inactive: -1.02.

With GCGGCUUGCCAAGACAGUATT against Grpr, the z-score is inactive: 1.34.

For GGUGGCUGAAGAUGUGACUTT against Ttyh1, the z-score was active: -3.46.

In the case of GCUGUUGUUCAAUGCCCUGTT against Olfr392, the z-score is inactive: -0.616.

On to GGGCUUUAGCCUGAGCGAUTT against Gpc1, for which the z-score was inactive: -0.916.

On to GGUCACUCCCACUUCGUUATT against Rack1, for which the z-score was inactive: -1.3.

As for GGUCUUCAUGGUCAAAGUGTT against Fzd10, the z-score is active: 2.11.

Take GCCUGUUAUAUGUGGCCUUTT against Olfr1352: the z-score was inactive: 0.673.

Turning to GGAGAUUGUGCUGAAGUUUTT against Tmc3, the z-score was inactive: 1.08.

On to CGGCCAUUAACUCAUGCAATT against Slurp1, for which the z-score is inactive: -0.677.

With CCCAGACUUAUUUCAUCACTT against Rgs12, the z-score is inactive: 1.07.

As to GGAGGAUUGUUUGAACCAATT against Myrip, the z-score was inactive: 1.13.

Turning to GGAAAAUGGAAGAAAAGCATT against Ddhd1, the z-score is inactive: -1.18.

With GGGAUGAACAUUUUAGGUCTT against Slc1a4, the z-score is inactive: -0.607.

As for GCAAGUAGCAUCUCUGAUUTT against Nfs1, the z-score was inactive: 1.03.

Take GUUCAAACAGUUUUUCAGATT against Tas2r115: the z-score is inactive: -0.657.

In the case of GGGAGAAUUGGAAAGCAGUTT against Myb, the z-score was inactive: -1.23.

Regarding GGAAAUAUGUUAUUUCCCATT against Acot12, the z-score is inactive: -0.309.

With GGUGAUAACCCUGAACAUATT against Rps6kb1, the z-score is inactive: -0.545.

As for GGUGAUACCUCUGUCCUGGTT against Exosc5, the z-score is inactive: -1.17.

As for GGUGAAGUACAACUAUACUTT against Plxna1, the z-score was inactive: -0.653.

With GGAGACAGGUGCUACAACUTT against Lin28a, the z-score is inactive: -1.97.
